No constants are given. Whether binding was seen depends on the method and setting. For part of these data: In cells and extracts the contact can be indirect. Some entries that bind do so weakly or less than the wild type. For part of these data: Where a sequence is shown, tags or fusion partners need not be part of it.

Chains of the proteins cited; added tags and fusions are not shown. Lines headed by an entry give the natural chain unless they say otherwise; changes in a name come on top.
UniProt Q09825, whole entry: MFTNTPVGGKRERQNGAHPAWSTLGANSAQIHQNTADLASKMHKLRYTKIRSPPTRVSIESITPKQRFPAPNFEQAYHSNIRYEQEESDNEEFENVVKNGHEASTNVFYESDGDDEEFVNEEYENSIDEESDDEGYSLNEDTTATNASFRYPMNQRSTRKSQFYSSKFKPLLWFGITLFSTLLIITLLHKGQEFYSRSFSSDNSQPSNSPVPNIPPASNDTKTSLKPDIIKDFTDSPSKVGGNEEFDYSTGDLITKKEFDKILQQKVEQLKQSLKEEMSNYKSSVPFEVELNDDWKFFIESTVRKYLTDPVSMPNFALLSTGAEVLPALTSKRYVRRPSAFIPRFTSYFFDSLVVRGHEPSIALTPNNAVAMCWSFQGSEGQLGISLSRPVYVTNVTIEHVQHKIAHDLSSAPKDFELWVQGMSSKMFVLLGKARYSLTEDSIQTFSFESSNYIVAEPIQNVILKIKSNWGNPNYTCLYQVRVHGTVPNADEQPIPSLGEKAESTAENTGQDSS

For one assay, the target named is T1, Mis18-3Flag (S. pombe) (UniProt Q9P802).
T1 sequence: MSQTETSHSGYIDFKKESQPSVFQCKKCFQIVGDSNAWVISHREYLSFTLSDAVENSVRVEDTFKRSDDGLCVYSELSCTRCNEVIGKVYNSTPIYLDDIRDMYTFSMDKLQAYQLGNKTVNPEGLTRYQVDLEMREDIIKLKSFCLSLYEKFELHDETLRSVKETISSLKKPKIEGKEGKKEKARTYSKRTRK
The experiment in a line: co-IP.

Assay [1] addresses 6His-Sad1(2-167) (S. pombe) (UniProt Q09825). The experiment in a line: SEC.
A further assay has as its target Sad1-3Flag (S. pombe) (UniProt Q09825). The experiment in a line: co-IP.
The target in assay [2] is 6His-MBP-Sad1(2-167) (S. pombe) (UniProt Q09825). Kind of assay: pull-down.

Take “Sad1-3V5 (C-terminally 3xV5-tagged Sad1) (from UniProt Q09825 1-514)”: the binding entry with Mis18-3Flag (S. pombe) is given as “binds”.

B1: 6His-Mis18 full length (protein, UniProt Q9P802 1-194)
chain: MSQTETSHSGYIDFKKESQPSVFQCKKCFQIVGDSNAWVISHREYLSFTLSDAVENSVRVEDTFKRSDDGLCVYSELSCTRCNEVIGKVYNSTPIYLDDIRDMYTFSMDKLQAYQLGNKTVNPEGLTRYQVDLEMREDIIKLKSFCLSLYEKFELHDETLRSVKETISSLKKPKIEGKEGKKEKARTYSKRTRK
With B1, in assay [1], the binding result is on record as “binds”.

B2: Mis18-3V5 (protein, UniProt Q9P802 1-194)
chain: MSQTETSHSGYIDFKKESQPSVFQCKKCFQIVGDSNAWVISHREYLSFTLSDAVENSVRVEDTFKRSDDGLCVYSELSCTRCNEVIGKVYNSTPIYLDDIRDMYTFSMDKLQAYQLGNKTVNPEGLTRYQVDLEMREDIIKLKSFCLSLYEKFELHDETLRSVKETISSLKKPKIEGKEGKKEKARTYSKRTRK
As to B2, in the assay with Sad1-3Flag (S. pombe), the binding result was “binds”.

B3: 6His-msfGFP-TEV-Mis18(121-194) (domain or fragment, UniProt Q9P802 121-194)
chain: VNPEGLTRYQVDLEMREDIIKLKSFCLSLYEKFELHDETLRSVKETISSLKKPKIEGKEGKKEKARTYSKRTRK
For the molecule B3, in assay [2], the binding result is on record as “no binding (tested: 5 μM)”.

B4: 6His-3C-Mis18(1-168) (domain or fragment, UniProt Q9P802 1-168)
chain: MSQTETSHSGYIDFKKESQPSVFQCKKCFQIVGDSNAWVISHREYLSFTLSDAVENSVRVEDTFKRSDDGLCVYSELSCTRCNEVIGKVYNSTPIYLDDIRDMYTFSMDKLQAYQLGNKTVNPEGLTRYQVDLEMREDIIKLKSFCLSLYEKFELHDETLRSVKETIS
For the molecule B4, the binding entry in assay [2] was “no binding (tested: 5 μM)”.

B5: 6His-3C-Mis18(1-120) (domain or fragment, UniProt Q9P802 1-120)
chain: MSQTETSHSGYIDFKKESQPSVFQCKKCFQIVGDSNAWVISHREYLSFTLSDAVENSVRVEDTFKRSDDGLCVYSELSCTRCNEVIGKVYNSTPIYLDDIRDMYTFSMDKLQAYQLGNKT
Turning to B5, the binding entry in assay [2] was “no binding (tested: 5 μM)”.

Source of the values: paper doi:10.1101/2023.07.03.547485 (bioRxiv, 2023).
